# Reference: patent EP0306649A1, “3,5-Dihydroxycarboxylic acids and their derivatives, processes for their preparation, their use as medicaments, pharmaceutic preparations and intermediate products” (HOECHST AKTIENGESELLSCHAFT, priority 1987, dated 1989)
# For at least one compound, name, drawing or mass did not settle the structure.
# Target: T1, HMG-CoA-Reduktase (Rattus norvegicus, UniProt P51639)
# T1 construct: an solubilisierten Enzympräparationen aus Lebermikrosomen von Ratten gemessen; from tissue; host or cells: rat liver microsomes (rats induced with cholestyramine after a shift of the day-night rhythm)
# T1 sequence (P51639 1-887): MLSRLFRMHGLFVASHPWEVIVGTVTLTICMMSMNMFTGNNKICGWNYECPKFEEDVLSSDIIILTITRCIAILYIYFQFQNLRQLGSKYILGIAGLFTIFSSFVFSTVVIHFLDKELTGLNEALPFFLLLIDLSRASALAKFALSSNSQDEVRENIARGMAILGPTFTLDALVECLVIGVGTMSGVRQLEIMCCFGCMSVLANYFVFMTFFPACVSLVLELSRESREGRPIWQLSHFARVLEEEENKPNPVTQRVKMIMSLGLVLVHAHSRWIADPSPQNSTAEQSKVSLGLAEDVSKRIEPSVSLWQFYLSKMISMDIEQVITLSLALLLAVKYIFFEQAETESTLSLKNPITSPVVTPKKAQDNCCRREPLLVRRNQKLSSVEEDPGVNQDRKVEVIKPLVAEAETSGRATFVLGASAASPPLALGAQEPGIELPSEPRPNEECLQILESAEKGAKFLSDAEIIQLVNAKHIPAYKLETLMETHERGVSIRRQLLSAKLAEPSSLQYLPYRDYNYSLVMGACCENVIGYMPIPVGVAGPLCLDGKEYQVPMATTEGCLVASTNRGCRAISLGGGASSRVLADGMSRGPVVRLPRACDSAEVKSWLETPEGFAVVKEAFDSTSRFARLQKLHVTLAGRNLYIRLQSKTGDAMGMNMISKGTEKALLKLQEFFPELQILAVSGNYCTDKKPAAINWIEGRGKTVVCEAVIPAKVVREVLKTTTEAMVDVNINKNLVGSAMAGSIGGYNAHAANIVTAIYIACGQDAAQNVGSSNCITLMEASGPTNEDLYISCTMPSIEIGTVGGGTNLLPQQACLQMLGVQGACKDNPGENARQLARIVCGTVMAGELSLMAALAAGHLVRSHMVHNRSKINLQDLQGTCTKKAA
# Assay: Inhibition of HMG-CoA reductase activity in solubilised enzyme preparations from rat liver microsomes
# Type: biochemical, Ratten
# Conditions: molar concentration for 50 % inhibition; solubilised enzyme from liver microsomes of cholestyramine-induced rats; substrate (S,R)14C-HMG-CoA; mean of 3 parallel samples
structure (smiles),measurement,value
"CC(C)C(C=CC(O)CC(O)CC(=O)[O-])=C(c1ccc(F)cc1)c1ccc(F)cc1.[Na+] (stereo not shown) [Beispiel 11a, 9,9-Di-(4-fluorphenyl)-3,5-dihydroxy-8-isopropyl-6,8-nonadiensäure Natriumsalz]",IC₅₀-Wert,7.0 x 10⁻⁹ M
